{"sequences": {"note": "The chains behind the UniProt entries cited, without tags or fusion partners. Where a name states a change or a piece, a line headed by the entry shows the natural chain unless it says otherwise.", "UniProt Q9ULW0, whole entry": "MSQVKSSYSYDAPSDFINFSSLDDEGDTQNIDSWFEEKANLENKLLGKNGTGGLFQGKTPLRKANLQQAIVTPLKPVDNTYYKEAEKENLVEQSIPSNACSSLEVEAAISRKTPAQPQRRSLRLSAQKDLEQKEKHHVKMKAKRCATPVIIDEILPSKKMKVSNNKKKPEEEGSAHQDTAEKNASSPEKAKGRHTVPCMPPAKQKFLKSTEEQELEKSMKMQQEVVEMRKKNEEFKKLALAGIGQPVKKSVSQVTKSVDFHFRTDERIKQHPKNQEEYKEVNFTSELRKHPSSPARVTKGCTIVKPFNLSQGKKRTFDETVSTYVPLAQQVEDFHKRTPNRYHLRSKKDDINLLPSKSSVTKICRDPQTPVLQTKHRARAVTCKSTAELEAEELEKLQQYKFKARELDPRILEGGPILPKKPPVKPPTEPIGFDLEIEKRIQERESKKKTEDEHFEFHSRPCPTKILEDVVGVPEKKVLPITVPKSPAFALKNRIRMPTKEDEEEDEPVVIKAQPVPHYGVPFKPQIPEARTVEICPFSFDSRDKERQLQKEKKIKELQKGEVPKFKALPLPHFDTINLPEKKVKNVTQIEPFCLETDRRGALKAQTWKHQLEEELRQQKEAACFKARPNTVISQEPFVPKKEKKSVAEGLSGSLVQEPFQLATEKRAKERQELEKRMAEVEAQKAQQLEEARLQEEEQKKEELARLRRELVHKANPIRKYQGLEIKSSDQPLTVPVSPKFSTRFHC", "UniProt Q70CQ3": "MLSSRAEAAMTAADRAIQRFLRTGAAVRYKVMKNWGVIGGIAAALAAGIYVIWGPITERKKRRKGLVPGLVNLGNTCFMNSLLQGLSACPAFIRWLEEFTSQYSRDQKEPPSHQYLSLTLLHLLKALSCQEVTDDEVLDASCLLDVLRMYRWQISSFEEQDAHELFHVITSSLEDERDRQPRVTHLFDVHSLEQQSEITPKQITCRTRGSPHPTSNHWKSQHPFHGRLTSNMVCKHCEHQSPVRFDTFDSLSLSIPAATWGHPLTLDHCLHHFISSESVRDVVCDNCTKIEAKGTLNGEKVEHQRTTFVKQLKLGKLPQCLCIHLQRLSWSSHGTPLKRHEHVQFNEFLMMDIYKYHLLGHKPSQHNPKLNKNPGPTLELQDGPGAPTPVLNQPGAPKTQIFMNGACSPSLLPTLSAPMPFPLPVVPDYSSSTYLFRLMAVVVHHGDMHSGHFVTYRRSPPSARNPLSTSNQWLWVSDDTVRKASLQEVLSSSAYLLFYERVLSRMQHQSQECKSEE", "UniProt Q14166": "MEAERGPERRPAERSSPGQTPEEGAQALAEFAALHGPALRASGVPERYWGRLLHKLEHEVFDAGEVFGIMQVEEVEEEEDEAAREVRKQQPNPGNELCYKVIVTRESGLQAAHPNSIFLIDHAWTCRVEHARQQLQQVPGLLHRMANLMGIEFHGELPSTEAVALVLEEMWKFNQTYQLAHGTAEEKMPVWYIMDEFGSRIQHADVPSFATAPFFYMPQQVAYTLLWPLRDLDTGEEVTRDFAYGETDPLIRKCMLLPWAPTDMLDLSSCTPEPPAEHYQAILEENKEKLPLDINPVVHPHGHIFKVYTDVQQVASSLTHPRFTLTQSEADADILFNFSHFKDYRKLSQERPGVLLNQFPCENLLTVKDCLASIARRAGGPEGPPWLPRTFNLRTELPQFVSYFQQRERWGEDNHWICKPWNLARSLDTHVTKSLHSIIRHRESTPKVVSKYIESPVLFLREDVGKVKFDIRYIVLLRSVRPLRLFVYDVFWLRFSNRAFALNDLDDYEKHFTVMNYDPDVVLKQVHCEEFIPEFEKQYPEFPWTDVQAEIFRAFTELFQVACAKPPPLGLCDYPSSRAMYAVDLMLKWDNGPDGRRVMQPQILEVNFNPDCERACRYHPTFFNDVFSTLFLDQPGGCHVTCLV", "UniProt P41226": "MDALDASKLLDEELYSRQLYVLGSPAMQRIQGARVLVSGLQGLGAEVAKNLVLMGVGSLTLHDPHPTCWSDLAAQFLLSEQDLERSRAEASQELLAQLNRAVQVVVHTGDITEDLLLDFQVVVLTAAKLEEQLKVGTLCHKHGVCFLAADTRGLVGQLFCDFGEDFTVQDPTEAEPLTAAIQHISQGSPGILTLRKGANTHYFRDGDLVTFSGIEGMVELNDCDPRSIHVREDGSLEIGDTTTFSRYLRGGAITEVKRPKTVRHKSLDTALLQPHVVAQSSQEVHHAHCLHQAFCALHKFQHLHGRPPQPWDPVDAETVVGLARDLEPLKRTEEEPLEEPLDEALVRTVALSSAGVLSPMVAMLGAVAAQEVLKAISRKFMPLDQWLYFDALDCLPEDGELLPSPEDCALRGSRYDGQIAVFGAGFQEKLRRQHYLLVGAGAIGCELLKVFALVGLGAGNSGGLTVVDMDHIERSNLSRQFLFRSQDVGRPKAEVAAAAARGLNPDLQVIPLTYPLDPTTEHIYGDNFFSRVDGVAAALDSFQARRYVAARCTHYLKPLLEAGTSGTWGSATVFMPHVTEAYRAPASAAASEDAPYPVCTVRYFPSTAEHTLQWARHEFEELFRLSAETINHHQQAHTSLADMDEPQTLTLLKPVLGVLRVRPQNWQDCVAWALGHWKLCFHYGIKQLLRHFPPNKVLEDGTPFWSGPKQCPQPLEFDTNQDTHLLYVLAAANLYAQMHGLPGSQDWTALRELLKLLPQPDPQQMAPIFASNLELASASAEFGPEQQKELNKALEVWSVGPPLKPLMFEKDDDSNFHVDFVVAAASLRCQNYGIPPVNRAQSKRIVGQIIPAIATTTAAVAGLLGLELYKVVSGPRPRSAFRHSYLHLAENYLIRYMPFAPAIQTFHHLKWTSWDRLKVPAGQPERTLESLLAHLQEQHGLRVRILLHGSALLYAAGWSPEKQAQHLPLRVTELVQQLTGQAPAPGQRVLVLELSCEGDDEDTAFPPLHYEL", "UniProt Q15629": "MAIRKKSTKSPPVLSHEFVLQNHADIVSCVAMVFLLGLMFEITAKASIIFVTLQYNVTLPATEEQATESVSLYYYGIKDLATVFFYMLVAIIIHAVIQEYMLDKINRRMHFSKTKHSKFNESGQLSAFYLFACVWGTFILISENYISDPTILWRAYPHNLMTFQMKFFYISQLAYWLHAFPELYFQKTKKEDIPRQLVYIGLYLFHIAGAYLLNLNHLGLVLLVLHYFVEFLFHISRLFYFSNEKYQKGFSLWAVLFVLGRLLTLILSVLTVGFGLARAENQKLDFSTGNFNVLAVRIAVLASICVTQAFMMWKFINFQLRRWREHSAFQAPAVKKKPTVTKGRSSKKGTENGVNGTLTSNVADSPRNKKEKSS", "UniProt Q9Y5Z9": "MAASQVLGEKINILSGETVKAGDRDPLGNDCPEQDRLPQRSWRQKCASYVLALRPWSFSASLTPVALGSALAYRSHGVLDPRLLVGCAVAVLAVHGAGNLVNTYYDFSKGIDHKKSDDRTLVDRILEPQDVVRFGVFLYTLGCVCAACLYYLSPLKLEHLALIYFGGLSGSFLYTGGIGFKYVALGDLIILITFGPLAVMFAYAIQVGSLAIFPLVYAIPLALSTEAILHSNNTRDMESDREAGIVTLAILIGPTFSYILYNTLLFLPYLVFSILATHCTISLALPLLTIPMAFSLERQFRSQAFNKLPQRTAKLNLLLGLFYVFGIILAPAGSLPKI", "UniProt Q32P41": "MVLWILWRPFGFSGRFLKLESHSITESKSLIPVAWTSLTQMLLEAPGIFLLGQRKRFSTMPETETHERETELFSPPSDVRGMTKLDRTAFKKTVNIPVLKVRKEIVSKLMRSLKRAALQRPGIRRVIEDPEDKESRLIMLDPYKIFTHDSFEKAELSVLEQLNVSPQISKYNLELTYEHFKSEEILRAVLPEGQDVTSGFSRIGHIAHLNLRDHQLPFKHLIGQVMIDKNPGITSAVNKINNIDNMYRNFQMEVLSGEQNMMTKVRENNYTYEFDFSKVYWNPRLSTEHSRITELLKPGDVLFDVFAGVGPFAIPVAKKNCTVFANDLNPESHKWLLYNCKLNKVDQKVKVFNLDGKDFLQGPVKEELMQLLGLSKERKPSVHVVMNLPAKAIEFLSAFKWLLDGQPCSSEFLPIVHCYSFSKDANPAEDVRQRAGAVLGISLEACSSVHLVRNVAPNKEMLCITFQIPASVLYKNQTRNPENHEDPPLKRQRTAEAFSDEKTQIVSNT", "UniProt Q8IX04": "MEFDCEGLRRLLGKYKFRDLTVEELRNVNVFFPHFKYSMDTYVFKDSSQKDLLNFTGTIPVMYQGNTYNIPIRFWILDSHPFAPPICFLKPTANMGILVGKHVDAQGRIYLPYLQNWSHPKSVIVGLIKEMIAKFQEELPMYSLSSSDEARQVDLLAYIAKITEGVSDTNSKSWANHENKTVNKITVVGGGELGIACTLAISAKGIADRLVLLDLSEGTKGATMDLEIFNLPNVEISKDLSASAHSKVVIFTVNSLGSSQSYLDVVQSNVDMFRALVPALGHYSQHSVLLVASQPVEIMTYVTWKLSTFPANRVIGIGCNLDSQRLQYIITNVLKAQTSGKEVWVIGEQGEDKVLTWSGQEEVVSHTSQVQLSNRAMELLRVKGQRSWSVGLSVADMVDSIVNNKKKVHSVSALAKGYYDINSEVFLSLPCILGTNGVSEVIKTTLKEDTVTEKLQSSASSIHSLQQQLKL", "UniProt Q969T4": "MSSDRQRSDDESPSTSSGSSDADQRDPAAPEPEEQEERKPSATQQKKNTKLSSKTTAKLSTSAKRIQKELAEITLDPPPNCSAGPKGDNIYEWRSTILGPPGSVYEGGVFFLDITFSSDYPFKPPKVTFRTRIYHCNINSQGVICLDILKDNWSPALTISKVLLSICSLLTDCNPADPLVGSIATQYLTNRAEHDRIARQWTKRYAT", "UniProt O43715": "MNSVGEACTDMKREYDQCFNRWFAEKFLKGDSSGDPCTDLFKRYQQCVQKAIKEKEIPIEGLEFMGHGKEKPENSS", "UniProt Q99757": "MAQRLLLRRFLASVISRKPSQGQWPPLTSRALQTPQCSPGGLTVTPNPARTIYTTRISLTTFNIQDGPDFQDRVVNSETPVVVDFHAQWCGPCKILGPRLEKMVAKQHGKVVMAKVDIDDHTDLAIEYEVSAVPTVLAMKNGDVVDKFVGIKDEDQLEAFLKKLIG"}, "source": "the supplement of paper PMC7666118", "note": "The list shows a part of the results.", "data": [{"compound": "COc1ccc(Cn2ccc3ccc(C(=O)NO)cc32)cc1", "assay": "dose-dependent thermal stabilisation call (2D-TPP, DLPTP, 10% FDR) (binary (1 = stabilised)); higher = stabilised by the compound", "conditions": "system: HL-60 intact cells; concentration range 0.04-10 µM", "values": [{"target": "TPX2 (UniProt Q9ULW0)", "dose-dependent thermal stabilisation call": "inactive: 0"}, {"target": "USP30 (UniProt Q70CQ3)", "dose-dependent thermal stabilisation call": "inactive: 0"}, {"target": "TTLL12 (UniProt Q14166)", "dose-dependent thermal stabilisation call": "inactive: 0"}, {"target": "UBA7 (UniProt P41226)", "dose-dependent thermal stabilisation call": "inactive: 0"}, {"target": "TRAM1 (UniProt Q15629)", "dose-dependent thermal stabilisation call": "inactive: 0"}, {"target": "UBIAD1 (UniProt Q9Y5Z9)", "dose-dependent thermal stabilisation call": "inactive: 0"}, {"target": "TRMT5 (UniProt Q32P41)", "dose-dependent thermal stabilisation call": "inactive: 0"}, {"target": "UEVLD (UniProt Q8IX04)", "dose-dependent thermal stabilisation call": "inactive: 0"}, {"target": "UBE2E3 (UniProt Q969T4)", "dose-dependent thermal stabilisation call": "inactive: 0"}, {"target": "TRIAP1 (UniProt O43715)", "dose-dependent thermal stabilisation call": "inactive: 0"}, {"target": "TXN2 (UniProt Q99757)", "dose-dependent thermal stabilisation call": "inactive: 0"}]}]}
